Assay results taken from PubChem BioAssay AID743266 (National Center for Advancing Translational Sciences (NCATS), 2014).
The whole screen tested about 410,000 compounds, of which about 310 (0.076%) were called active. This list was built around the results that the source calls inconclusive (neither active nor inactive); the mix of calls is not that of the screen. Calls come from the whole dose curve; as a rule, active = well fitted activation curve with a large enough effect; inconclusive = small, poorly fitted or top-dose-only effect, or another doubt; inactive = no such curve, though single readings can be large or run the other way. A potency beside an inconclusive call is a rough fit, not a confirmed value.

By UniProt entry, the sequences of proteins in these tests, tags left out. Where a name states a change or a piece, a line headed by the entry shows the natural chain unless it says otherwise.
UniProt Q03431: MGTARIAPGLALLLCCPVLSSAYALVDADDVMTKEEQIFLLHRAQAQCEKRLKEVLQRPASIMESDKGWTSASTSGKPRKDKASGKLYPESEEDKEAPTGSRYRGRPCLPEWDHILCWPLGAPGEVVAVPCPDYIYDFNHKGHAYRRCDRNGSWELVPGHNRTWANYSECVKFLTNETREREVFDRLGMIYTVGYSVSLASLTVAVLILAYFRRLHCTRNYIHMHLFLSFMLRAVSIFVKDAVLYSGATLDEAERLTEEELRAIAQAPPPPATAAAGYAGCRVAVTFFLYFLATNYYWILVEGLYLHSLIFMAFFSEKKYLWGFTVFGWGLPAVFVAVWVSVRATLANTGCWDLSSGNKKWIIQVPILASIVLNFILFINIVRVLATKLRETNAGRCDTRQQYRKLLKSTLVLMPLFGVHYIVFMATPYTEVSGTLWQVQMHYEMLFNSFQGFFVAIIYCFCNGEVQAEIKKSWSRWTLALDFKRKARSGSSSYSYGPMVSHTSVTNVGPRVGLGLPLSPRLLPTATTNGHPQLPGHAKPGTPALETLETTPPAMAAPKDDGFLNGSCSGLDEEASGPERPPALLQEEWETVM

target: Parathyroid hormone/parathyroid hormone-related peptide receptor (Homo sapiens) (UniProt Q03431); assay: qHTS for PTHR1 Agonists: Primary Screen; details: HEK293 GP2 PTHR1 cells, GloSensor cAMP luminescence, 1 h; activation: at 115 µM (top of the series) unless noted; series mostly up to 115 µM; note: nearly all actives have a fitted effect of over 55% in size
Procedure, shortened: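 HEK-293-derived GP2 cells expressing PTHR1 and a GloSensor cAMP reporter, 3,000/well, plated overnight, given luciferin plus IBMX (each 0.5 mM as added) for 1 h at 37 °C, then compound for 1 h at 37 °C. Luminescence was read after 15 min at room temperature.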
Potency is the fitted concentration of half-maximal effect.

Potency, inactive:
O=C(O)c1cccnc1SCc1cccc(Cl)c1

Potency, inconclusive:
N#Cc1ccccc1OCC(=O)NNC(=O)CNC(=O)c1cccc(Br)c1 100 µM [activator, single point], Cc1ccc(-n2c(-c3ccncc3)n[nH]c2=S)cc1C 141 µM [activator, single point], Nn1c(Cc2ccccc2F)nnc1SCC(=O)Nc1cccc(S(=O)(=O)NC2=NCCCCC2)c1 28.2 µM [activator, partial curve, poor fit], COc1ccc2c(c1)CC(NC(=O)Nc1ccc(NC(C)=O)cc1)CO2 (centres undefined) 141 µM [activator, single point], O=C(Nc1ccccc1N1CCN(C(=O)c2ccc(Cl)cc2)CC1)c1ccc(Br)cc1 35.5 µM [activator, single point], COC(=O)c1ccc(NC(=O)CSCc2ccc(C)cc2)cc1 39.8 µM [activator, single point], CC1CCCN(C(=O)C2CCN(c3nc(-c4ccccc4)nc4c3CCC4)CC2)C1 (centres undefined) 141 µM [activator, single point], COc1ccccc1N1CCN(C(=O)C(CCSC)NS(=O)(=O)c2ccc3c(c2)oc(=O)n3C)CC1 (centres undefined) 126 µM [activator, single point], CCN(C[C@H]1N[C@@](CC)(C(=O)OC)[C@H]2C(=O)N(C)C(=O)[C@@H]12)S(=O)(=O)c1ccc(F)cc1 56.2 µM [activator, partial curve, poor fit], O=C(c1cnc2ccccn2c1=O)N1CCc2ccccc21 0.224 µM [activator, partial curve, poor fit]

activation, inconclusive:
CC(C)c1ccc(S(=O)(=O)c2nnn3c2nc(N2CCOCC2)c2sccc23)cc1 -54.2% [activator], CN1CCN(CC(O)COc2ccc(S(=O)(=O)N3CCOCC3)cc2)CC1 (centres undefined) -92.9% [activator]

activation, inactive:
CCCC[C@@H](CNC)NC[C@H](Cc1ccc(O)cc1)NCCc1ccc(OCC)cc1 -14.5%, CC(CCc1ccccc1)NC(=O)CN(C)Cc1ccc(F)cc1 (centres undefined) -12.2%, O=C1CCC(C(=O)N2CCC(O)CC2)CN1CCc1ccc(Cl)cc1 (centres undefined) -27.7%

outcome, inactive:
COc1ccc(N2CCN(CC(=O)Nc3ccc(C)cc3)CC2)cc1, Cc1ccc(NC(=S)N/N=C2/CCCCc3ccccc32)cc1, O=C(Nc1c(C(=O)N2CCN(c3ccccc3)CC2)oc2ccccc12)c1ccc(Br)o1
